According to patent CN114516919A:
Results are given in words; binding and its absence hold for the method and conditions named. Some binding calls cover weakened binding; strength is not graded here.

By UniProt entry, the sequences of proteins in these tests, tags left out. Residues count along the entry.
UniProt Q13018, residues 21-1463: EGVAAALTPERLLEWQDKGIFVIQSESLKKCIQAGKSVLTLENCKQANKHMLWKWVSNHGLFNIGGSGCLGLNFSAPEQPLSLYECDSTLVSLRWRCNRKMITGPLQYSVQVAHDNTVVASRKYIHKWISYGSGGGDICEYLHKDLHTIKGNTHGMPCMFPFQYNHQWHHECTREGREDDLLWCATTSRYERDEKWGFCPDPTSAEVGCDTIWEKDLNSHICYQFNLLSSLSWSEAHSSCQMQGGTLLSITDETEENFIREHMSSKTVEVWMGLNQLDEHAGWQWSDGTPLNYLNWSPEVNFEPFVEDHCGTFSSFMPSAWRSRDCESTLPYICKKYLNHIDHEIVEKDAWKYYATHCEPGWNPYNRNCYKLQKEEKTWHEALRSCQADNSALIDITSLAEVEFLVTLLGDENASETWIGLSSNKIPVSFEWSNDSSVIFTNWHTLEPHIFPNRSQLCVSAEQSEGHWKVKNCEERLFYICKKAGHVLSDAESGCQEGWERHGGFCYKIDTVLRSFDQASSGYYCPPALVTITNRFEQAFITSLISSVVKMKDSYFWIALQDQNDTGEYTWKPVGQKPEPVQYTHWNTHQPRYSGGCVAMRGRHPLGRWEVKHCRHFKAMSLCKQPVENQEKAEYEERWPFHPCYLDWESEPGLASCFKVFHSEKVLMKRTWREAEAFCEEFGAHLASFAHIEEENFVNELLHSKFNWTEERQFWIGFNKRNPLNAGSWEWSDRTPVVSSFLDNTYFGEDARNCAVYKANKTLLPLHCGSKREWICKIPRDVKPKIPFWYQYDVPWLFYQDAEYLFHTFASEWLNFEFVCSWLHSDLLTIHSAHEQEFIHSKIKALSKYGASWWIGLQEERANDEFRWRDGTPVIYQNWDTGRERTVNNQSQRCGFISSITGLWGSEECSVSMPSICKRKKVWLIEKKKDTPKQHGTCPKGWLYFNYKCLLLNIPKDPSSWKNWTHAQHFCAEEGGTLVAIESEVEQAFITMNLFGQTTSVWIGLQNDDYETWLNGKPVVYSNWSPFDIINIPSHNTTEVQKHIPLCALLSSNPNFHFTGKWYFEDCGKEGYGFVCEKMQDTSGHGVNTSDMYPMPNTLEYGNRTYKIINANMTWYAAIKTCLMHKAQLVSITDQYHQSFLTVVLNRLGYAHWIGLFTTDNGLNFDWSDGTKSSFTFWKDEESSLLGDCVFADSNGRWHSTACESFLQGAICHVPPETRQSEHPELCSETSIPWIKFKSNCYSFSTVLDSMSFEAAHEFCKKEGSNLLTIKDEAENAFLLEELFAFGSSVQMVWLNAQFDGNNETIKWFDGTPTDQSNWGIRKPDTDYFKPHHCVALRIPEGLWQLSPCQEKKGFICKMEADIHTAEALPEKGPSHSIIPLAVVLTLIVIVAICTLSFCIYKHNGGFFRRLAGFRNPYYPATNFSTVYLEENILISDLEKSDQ

Target: 表达PLA2R蛋白细胞上的PLA2R蛋白 (UniProt Q13018)
Experiment: flow cytometry on PLA2R-expressing cells, 0.5 μg antibody, Alexa Fluor 488 goat anti-rabbit secondary

B1: 54D11抗PLA2R重组兔单克隆抗体 (antibody, V domains shown)
VH: QSVEESGGRLVTPGTPLTLTCTVSGIDLSSHGMGWVRQAPGKGLEWIGYINTGGSAYYASWAKGRFTISRTSTTVDLKMTSLTTEDTATYFCARGDPDYTSGFPIWGPGTLVTVSS
VL: AFEMTQTPASVEVAVGGTVTIKCQASESISSWLAWYQQKPGQPPKLLIYRASTLASGVPSRFSGSGSGTQFTLTISGVECADAATYYCQQGYSSHNIDNIFGGGTEVVVR
binding: binds
